Results are given in words; binding and its absence hold for the method and conditions named. A result given as binding can be weak or reduced; the word gives no strength.
Experiments:
[1] = target: mouse GIPC3 GH1-PDZ-GH2 (residues 20-307) (mouse); experiment: pull-down; three proteins mixed: GST-HCBD, a GIPC and PlexinD1cyto (with JM), each 1 μM; glutathione beads; 10 mM Tris pH 8.0, 150 mM NaCl, 1 mM DTT; room temperature; Coomassie-stained SDS-PAGE; both purified
[2] = target: myosin VI-HCBD(1052-1094), crystallised form (mouse); experiment: crystal structure; GIPC2-GH2(238-314) and myosin VI-HCBD(1052-1094) mixed equimolar, 15 mg/ml; 0.1 M MES pH 6.5, 10% (w/v) PEG20000; 20°C; both purified

| binding [1] | binding [2] | Binder |
| --- | --- | --- |
| binds |  | mouse PlexinD1 cytoplasmic region with the JM-segment (residues 1297-1925) (domain or fragment, UniProt Q3UH93 1297-1925) SRRAERYWQKTLLQMEEMESQIREEIRKGFAELQTDMTDLTKELNRSQGIPFLEYKHFVTRTFFPKCSSLYEERYVLPSKTLNSQGGSPPQETHPLLGEWNIPEHCRPSMEEGISLFSSLLNNKHFLIVFVHALEQQKDFAVRDRCSLASLLTIALHGKLEYYTSIMKELLVDLIDASAAKNPKLMLRRTESVVEKMLTNWMSICMYGCLRETVGEPFFLLLCAIKQQINKGSIDAITGKARYTLNEEWLLRENIEAKPRNLNVSFQGCGMDSLSVRAMDTDTLTQVKEKILEAFCKNVPYSQWPRAEDVDLEWFASSTQSYVLRDLDDTSVVEDGRKKLNTLAHYKIPEGASLAMSLTDKKDSTLGRVKDLDTEKYFHLVLPTDELVEPKKSHRQSHRKKVLPEIYLTRLLSTKGTLQKFLDDLFKAILSIREDKPPLAVKYFFDFLEEQAEKRGISDPDTLHIWKTNSLPLRFWVNILKNPQFVFDIEKTDHIDACLSVIAQAFIDACSISDLQLGKDSPTNKLLYAKEIPEYRKTVQRYYKQIQDMTPLSEQEMNAHLAEESRKYQNEFNTNVAMAEIYKYAKRYRPQIMAALEANPTARRTQLQHKFEQVVALMENNIYECYSEA |
|  | binds | mouse GIPC2 GH2 domain (residues 238-314) (domain or fragment, UniProt Q9Z2H7 238-314) LPSEAKAKAIGKVDDLLELYMGIRDIDLATTMFEAGKDKSNPDEFAVALDETLGDFAFPDEFLFDVWGAISDMKQGR |
